Paper PMC9039736

Target: T1, SMYD3 (endogenous) (human (endogenous in HT-29, HGC-27, HLC-19, CAPAN-1)) (UniProt Q9H7B4)
T1 sequence: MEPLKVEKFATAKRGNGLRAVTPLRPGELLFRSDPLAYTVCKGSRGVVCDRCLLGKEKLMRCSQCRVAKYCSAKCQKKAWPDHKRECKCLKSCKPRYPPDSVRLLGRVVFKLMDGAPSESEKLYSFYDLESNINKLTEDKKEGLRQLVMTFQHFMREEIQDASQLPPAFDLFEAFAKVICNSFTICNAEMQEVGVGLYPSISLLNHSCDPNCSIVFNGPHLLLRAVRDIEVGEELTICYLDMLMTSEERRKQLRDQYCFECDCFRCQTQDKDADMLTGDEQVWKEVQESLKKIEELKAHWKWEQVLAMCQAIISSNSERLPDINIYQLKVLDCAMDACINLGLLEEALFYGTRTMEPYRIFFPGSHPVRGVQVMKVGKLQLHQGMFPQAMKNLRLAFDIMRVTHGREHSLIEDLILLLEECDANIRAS
Test: co-IP; endogenous proteins in whole-cell lysates (HT-29; for some pairs also HGC-27, HLC-19, CAPAN-1); IP with antibody to SMYD3 or to the partner on Dynabeads Protein A or G, immunoblot; lysis buffer 50 mM Tris-HCl pH 7.4, 5 mM EDTA, 250 mM NaCl, 1% Triton X-100; for phospho-MET cells serum-starved 24 h, then 10 ng/ml HGF for 2 h

binding: binds
Substance: 5'AMP-activated protein kinase (AMPK) (endogenous) (complex)

No constants are given. Whether binding was seen depends on the method and setting. Binding seen in cells or lysates may run through a third protein. A result given as binding can be weak or reduced; the word gives no strength.
